Assay results taken from patent US9980925B2, “Xanthohumol in antiarrythmic applications” (University of South Carolina, priority 2016, dated 2018).

Test system: rat ventricular cell
Experiment: Uptake and mitochondrial co-localization of xanthohumol fluorescence with MitoTracker-Red
Type: cell-based
Settings: 300 nM xanthohumol
Method: The weak fluorescence of xanthohumol (50-1000 μM) allowed its uptake and subcellular mitochondrial distribution (λex=405 nm) and co-localization with MitoTracker-Red (λex=568 nm) to be monitored at 0.2 Hz in dual channel recordings with a LEICA microscope (TIRF DMI6000 B, 63x oil-immersion objective; Leica Microsystems, Buffalo Grove, Ill.) equipped with an Andor iXon3 camera (512×512 pixels of 0.254×0.254 μm^2, Belfast, UK) and operating in the epifluorescence mode (FIG. 2).
After 6 minutes, the cellular fluorescence intensity produced by 300 and 100 nM xanthohumol was 130±14 (n=4) and 32±12 (n=2), respectively. In comparison, the cellular autofluorescence was 350±65 so that lower concentrations of xanthohumol were not reliably detected.

## COc1cc(O)c(CC=C(C)C)c(O)c1C(=O)/C=C/c1ccc(O)cc1 [xanthohumol]
  co-localization with mitochondrial marker MitoTracker-Red: high degree of co-localization
